US20240368263A1
Numbering of substitutions follows the chain as printed. These are yes or no findings as the source states them, for the method shown. Some results given as binding are weak or reduced against the parent protein; the word gives no strength.

T1: human TL1A (Fitzgerald, Prod. #30R-AT070) (human) (UniProt O95150)
T1 sequence (biotinylated with EZ-Link Sulfo-NHS-LC-Biotin where used as soluble antigen, looked up): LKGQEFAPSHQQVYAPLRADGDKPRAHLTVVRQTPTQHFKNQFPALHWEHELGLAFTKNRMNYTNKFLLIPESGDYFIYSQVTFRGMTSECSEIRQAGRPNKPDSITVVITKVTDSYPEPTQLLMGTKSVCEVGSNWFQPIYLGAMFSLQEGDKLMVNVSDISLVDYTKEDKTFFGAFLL

T2: TL1A (epitope binning studies) (UniProt O95150)
T2 sequence (looked up): T1 sequence (biotinylated with EZ-Link Sulfo-NHS-LC-Biotin where used as soluble antigen, looked up)

B1: clone 53, modified IgG1 / kappa (antibody, V domains shown)
VH: QVQLVQSGAEVKKPGASVKVSCKASGFDIQDTYMHWVRQAPGQGLEWMGRIEPASGHLKYDPKFQERVTMTRDTSTSTVYMELSSLRSEDTAVYYCARSGGLPDKWGQGTTVTVSS
VL: EIVLTQSPGTLSLSPGERATLSCRASSSVSYMYWYQQKPGQAPRLLIYATSNLASGIPDRFSGSGSGTDFTLTISRLEPEDFAVYYCQQWEGNPRTFGGGTKLEIKR
B2: clone 17L, IgG2 / kappa (antibody)
heavy: QVQLVQSGAEVKKPGASVKVSCKASGFDIQDTYMHWVRQAPGQGLEWMGRIDPASGHLKYDPKFQVRVTMTRDTSTSTVYMELSSLRSEDTAVYYCARSGGLPDMWGQGTTVTVSSASTKGPSVFPLAPCSRSTSESTAALGCLVKDYFPEPVTVSWNSGALTSGVHTFPAVLQSSGLYSLSSVVTVPSSNFGTQTYTCNVDHKPSNTKVDKTVERKCCVECPPCPAPPVAGPSVFLFPPKPKDTLMISRTPEVTCVVVDVSHEDPEVQFNWYVDGVEVHNAKTKPREEQFNSTFRVVSVLTVVHQDWLNGKEYKCKVSNKGLPAPIEKTISKTKGQPREPQVYTLPPSREEMTKNQVSLTCLVKGFYPSDIAVEWESNGQPENNYKTTPPMLDSDGSFFLYSKLTVDKSRWQQGNVFSCSVMHEALHNHYTQKSLSLSPGK
light: EIVLTQSPGTLSLSPGERATLSCRASSSVSYMYWYQQKPGQAPRLLIYATSNLASGIPDRFSGSGSGTDFTLTISRLEPEDFAVYYCQQWQGNPRTFGGGTKLEIKRTVAAPSVFIFPPSDEQLKSGTASVVCLLNNFYPREAKVQWKVDNALQSGNSQESVTEQDSKDSTYSLSSTLTLSKADYEKHKVYACEVTHQGLSSPVTKSFNRGEC
B3: clone 34, IgG2 / kappa (antibody)
heavy: B2 heavy with D52E, L58I, V66G, M105W
light: B2 light with Q91E
B4: clone 47, IgG2 / kappa (antibody)
heavy: B2 heavy with D52E, L58V, V66T, M105W
light: B2 light with Q91E
B5: clone 53, IgG2 / kappa (antibody)
heavy: B2 heavy with D52E, V66E, M105K
light: B2 light with Q91E
B6: murine 5C3D11 monoclonal antibody (antibody, V domains shown)
VH: EVQLQQSGAELVKPGASVKLSCTASGFDIQDTYMHWVKQRPEQGLEWIGRIDPASGHTKYDPKFQVKATITTDTSSNTAYLQLSSLTSEDTAVYYCSRSGGLPDVWGAGTTVTVSS
VL: QIVLSQSPAILSASPGEKVTMTCRASSSVSYMYWYQQKPGSSPKPWIYATSNLASGVPDRFSGSGSGTSYSLTISRVEAEDAATYYCQQWSGNPRTFGGGTKLEIK
B7: 12835 (humanized 5C3D11) antibody, IgG format (antibody, V domains shown)
VH: B1 VH with V20L, E52D, L58T, E66V, R72T, A97S, K105V
VL: EIVLTQSPGTLSLSPGERVTMSCRASSSVSYMYWYQQKPGQAPRPWIYATSNLASGVPDRFSGSGSGTDYTLTISRLEPEDFAVYYCQQWSGNPRTFGGGTKLEIK
B8: 1681 anti-TL1A antibody (antibody, V domains shown)
VH: EVQLLESGGGLVQPGKSLRLSCAVSGFTFSTYGMNWVRQAPGKGLEWVSSISGTGRTTYHADSVQGRFTVSRDNSKNILYLQMNSLRADDTAVYFCTKERGDYYYGVFDYWGQGTLVTVSS
VL: DIQMTQSPSTLSASVGDRVTITCRASQTISSWLAWYQQTPEKAPKLLIYAASNLQSGVPSRFSGSGSGTEFTLTISSLQPDDFATYYCQQYHRSWTFGQGTKVEIT
B9: 1A9 anti-TL1A antibody (antibody, V domains shown)
VH: QIQLVQSGPELKKPGETVKISCKASGYTFTTYGMSWVKQAPGKGLKWMGWMNTYSGVTTYADDFKGRFAFSLETSASTAYMQIDNLKNEDTATYFCAREGYVFDDYYATDYWGQGTSVTVSS
VL: DVLMTQTPLSLPVSLGDQASISCRSSQNIVHSDGNTYLEWYLQKPGQSPKLLIYKVSNRFSGVPDRFSGSGSGTDFTLKISRVEAEDLGIYYCFQGSHVPLTFGAGTKLELK

Columns and labels:
[1] = target: membrane-associated human TL1A on transfected HEK293 cells (human) (UniProt O95150); assay: flow cytometry, HEK293 cells expressing human TL1A
[2] = target: T1, human TL1A (Fitzgerald, Prod. #30R-AT070) (human); assay: ELISA on antigen coated plates and ELISA capture of soluble biotinylated antigen
[3] = target: T2, TL1A (epitope binning studies); assay: SPR array epitope binning, pre-mix

| Binder | binding [1] | binding [2] | binding [3] |
| --- | --- | --- | --- |
| B1 | binds | binds | – |
| B2 | binds | binds | – |
| B3 | binds | binds | – |
| B4 | binds | binds | – |
| B5 | – | binds | – |
| B6 | – | – | binds |
| B7 | – | – | binds |
| B8 | – | – | binds |
| B9 | – | – | binds |
